Results on 3 substances are retold here after paper doi:10.1101/2023.12.20.572709.

The chains behind the UniProt entries cited, without tags or fusion partners.
UniProt P43694: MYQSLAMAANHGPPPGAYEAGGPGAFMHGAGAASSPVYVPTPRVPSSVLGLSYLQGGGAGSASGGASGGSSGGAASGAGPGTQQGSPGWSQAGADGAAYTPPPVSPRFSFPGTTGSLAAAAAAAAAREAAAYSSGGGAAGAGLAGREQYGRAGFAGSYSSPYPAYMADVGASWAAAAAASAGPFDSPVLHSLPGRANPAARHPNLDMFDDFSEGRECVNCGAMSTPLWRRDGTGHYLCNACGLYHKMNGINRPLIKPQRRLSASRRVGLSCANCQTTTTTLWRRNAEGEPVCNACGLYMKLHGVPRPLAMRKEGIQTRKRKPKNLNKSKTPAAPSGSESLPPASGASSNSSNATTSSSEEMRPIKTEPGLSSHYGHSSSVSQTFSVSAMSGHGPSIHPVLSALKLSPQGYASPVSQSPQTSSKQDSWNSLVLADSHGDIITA
UniProt P27361: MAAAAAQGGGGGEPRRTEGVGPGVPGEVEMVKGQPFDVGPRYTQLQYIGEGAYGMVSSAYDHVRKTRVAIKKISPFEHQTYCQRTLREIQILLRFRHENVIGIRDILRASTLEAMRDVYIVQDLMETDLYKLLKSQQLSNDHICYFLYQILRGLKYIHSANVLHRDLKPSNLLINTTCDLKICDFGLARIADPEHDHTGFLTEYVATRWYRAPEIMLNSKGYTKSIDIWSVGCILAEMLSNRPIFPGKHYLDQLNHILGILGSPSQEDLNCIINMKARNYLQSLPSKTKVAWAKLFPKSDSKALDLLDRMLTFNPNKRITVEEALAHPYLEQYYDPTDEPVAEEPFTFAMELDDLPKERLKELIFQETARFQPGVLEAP
UniProt P28482: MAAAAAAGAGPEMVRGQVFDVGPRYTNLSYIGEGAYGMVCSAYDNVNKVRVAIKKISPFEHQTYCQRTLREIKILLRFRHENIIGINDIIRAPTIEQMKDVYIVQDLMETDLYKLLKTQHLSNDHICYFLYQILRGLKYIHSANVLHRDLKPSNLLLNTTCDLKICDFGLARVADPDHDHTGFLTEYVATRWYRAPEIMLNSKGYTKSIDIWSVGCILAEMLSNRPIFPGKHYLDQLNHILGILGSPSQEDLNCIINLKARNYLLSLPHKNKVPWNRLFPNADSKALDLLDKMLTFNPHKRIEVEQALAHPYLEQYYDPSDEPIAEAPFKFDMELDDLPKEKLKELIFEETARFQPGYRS

Results are given in words; binding and its absence hold for the method and conditions named. Binding seen in cells or lysates may run through a third protein. These calls come from enrichment with a bait or labelling near it, and not all partners need be listed.

The assay has as its target T1, Fibroblast growth factor 12 (FGF12) (human (endogenous in myocardial tissue)) (UniProt P61328).
T1 sequence: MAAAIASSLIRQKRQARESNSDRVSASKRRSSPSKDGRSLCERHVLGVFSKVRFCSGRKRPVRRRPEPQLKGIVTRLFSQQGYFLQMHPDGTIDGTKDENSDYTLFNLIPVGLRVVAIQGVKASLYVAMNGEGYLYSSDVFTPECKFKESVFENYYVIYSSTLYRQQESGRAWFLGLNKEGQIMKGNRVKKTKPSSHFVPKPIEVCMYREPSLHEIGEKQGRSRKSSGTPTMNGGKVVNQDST
The assay can be described thus: affinity purification with mass spectrometry.

Take “GATA binding protein 4 (GATA4) (from UniProt P43694 1-442)”: the binding result was “binds”.

“mitogen-activated protein kinase 3 (MAPK3) (from UniProt P27361 1-379)”: the binding entry is “binds”.

In the case of “mitogen-activated protein kinase 1 (MAPK1) (from UniProt P28482 1-360)”, the binding result is recorded as “binds”.
